Reference: PubChem BioAssay AID485314 (National Center for Advancing Translational Sciences (NCATS), 2010)
Out of some 340,000 compounds screened, about 4,500 (1.3%) were called active. Inconclusive results, whose numbers are uncertain, are shown with a selection of clear calls. The call rests on the fitted dose curve; in most records, active means well fitted inhibition curve with a large enough effect; inconclusive means small, poorly fitted or top-dose-only effect, or another doubt; inactive means no such curve, though single readings can be large or run the other way. Where the call is inconclusive, the potency comes from a doubtful curve fit.
On the % scale 0 is the no-effect control and ±100 the full control effect; potency means the concentration at half of the fitted maximal effect.

These molecules were tested against DNA polymerase beta (Homo sapiens) (UniProt P06746) (assay: qHTS Assay for Inhibitors of DNA Polymerase Beta). Conditions: Pol beta primer extension/strand displacement, fluorescence kinetic; activity change, negative = inhibition: at 114 µM (top of the series).
Summary of the method: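 10 nM enzyme + cpd, 15 min RT; start with substrate 50 nM final; read 0 min and after 10 min RT. Corrected, normalized data; 4-parameter Hill curve fit.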
In the case of `COC(=O)c1[nH]c2ccc(C)cc2c1NC(=O)CCN1CCN(Cc2ccc3c(c2)OCO3)CC1`, the Potency is reported as inconclusive: 89.1 µM [inhibitor, single point]. `CCn1cc(C(=O)NCc2ccncc2)c(=O)c2cc(F)c(N3CCN(C(=O)c4ccco4)CC3)cc21` was tested, and the Potency was inconclusive: 31.6 µM [inhibitor, single point]. `Cc1ccc(C)c(N2CCN(S(=O)(=O)c3c(C(=O)N4CCC(C)CC4)c(C)n(C)c3C)CC2)c1` was tested, and the Potency was inconclusive: 89.1 µM [inhibitor, single point]. In the case of `O=C(COc1ccccc1)NCC(c1ccc(Cl)cc1)N1CCCCC1` (stereo unspecified), the Potency is reported as “inactive”. In the case of `COc1ccc(/C=C/c2ccc3ccccc3[n+]2C)cc1OC`, the Potency is reported as active: 28.2 µM. With `Nc1ncnc2c1nc(Br)n2C1O[C@H]2COP(=O)(O)O[C@@H]2C1O` (stereo partly specified) the Potency was “inactive”. In the case of `Cc1nc2ccc(-c3nc4cc(N)ccc4o3)cc2[nH]1`, the Potency is reported as inconclusive: 89.1 µM [inhibitor, single point]. In the case of `COc1ccc2c(=O)c3c(=O)n(Cc4ccco4)c(-c4ccccc4)nc3oc2c1`, the Potency is reported as “inactive”. In the case of `CCN(C(=O)CCc1nnc2ccc(NCc3ccco3)nn12)c1ccccc1`, the activity change, negative = inhibition is reported as inconclusive: -30.8% [inhibitor]. For `COc1cc(OC)c(NC(=O)c2cnn(-c3ccccc3)c2-n2cccc2)cc1Cl`, the Potency was active: 50.1 µM. `CCn1c(SCC(=O)OC)nnc1C1CCCCC1` was tested, and the Potency was inconclusive: 15.8 µM [inhibitor, partial curve, poor fit]. With `Nc1nc(-c2ccc([N+](=O)[O-])cc2)c(C(=O)Nc2ccc(Cl)cc2)s1` the Potency was inconclusive: 89.1 µM [inhibitor, single point]. For `COCCCNC(=O)c1cc2c(-c3cccc(OC)c3)nn(C)c2s1`, the Potency was “inactive”. For `O=C(CSc1nccn1Cc1ccc(Cl)cc1)Nc1nc2ccccc2s1`, the Potency was inconclusive: 50.1 µM [inhibitor, partial curve]. In the case of `COC(=O)Cn1cnc2c(nnn2-c2ccc(C)cc2)c1=O`, the Potency is reported as inconclusive: 89.1 µM [inhibitor, single point]. With `Cc1ccccc1CCNC(=O)c1ccc(Cn2c(=O)c3cccn3c3cccnc32)cc1` the Potency was inconclusive: 56.2 µM [inhibitor, partial curve]. For `COc1ccc(/C=C2\SC(=S)N(CCCC(=O)Nc3ccc(C(=O)O)cc3)C2=O)cc1OC`, the Potency was inconclusive: 89.1 µM [inhibitor, single point]. For `O=C(Cn1cc(/C=N/NC(=O)c2cccc(C(F)(F)F)c2)c2ccccc21)Nc1ccc(F)cc1`, the Potency was inconclusive: 6.31 µM [inhibitor, full curve, poor fit]. In the case of `NS(=O)(=O)c1ccc(O)c(NC(=O)c2ccc([N+](=O)[O-])o2)c1`, the Potency is reported as “inactive”. For `COc1ccc(CNC(=O)CCc2nnc3n(C)c(=O)c4sccc4n23)cc1`, the Potency was inconclusive: 89.1 µM [inhibitor, single point]. `COc1ccc(-c2nc(C(=O)Nc3cccc(C(C)=O)c3)nn2-c2ccccc2Cl)cc1` was tested, and the Potency was inconclusive: 20 µM [inhibitor, full curve]. For `Oc1ccccc1-c1cc(-c2ccco2)[nH]n1`, the Potency was “inactive”. `CCOC(=O)Nc1ccc(S(=O)(=O)NCCCN2CCOCC2)cc1` was tested, and the Potency was inconclusive: 89.1 µM [inhibitor, single point]. For `C#Cc1ccc([C@@H]2C=C(C(=O)OCC=C)O[C@H](OCc3ccc(CO)cc3)C2)cc1`, the Potency was inconclusive: 31.6 µM [inhibitor, partial curve, poor fit]. In the case of `O=C(NCC1(N2CCOCC2)CCCCC1)c1ccc(Cl)c(S(=O)(=O)NCc2ccco2)c1`, the Potency is reported as inconclusive: 89.1 µM [inhibitor, single point]. With `CCOc1ccc(OCC(=O)Nc2ccc(S(=O)(=O)Nc3cc(C)on3)cc2)cc1` the Potency was inconclusive: 11.2 µM [inhibitor, full curve]. With `CCc1ccc(-c2nc(SCC(=O)N(CCOC)c3c(N)n(Cc4ccccc4)c(=O)[nH]c3=O)n[nH]2)cc1` the Potency was inconclusive: 100 µM [inhibitor, single point]. With `O=C(NNc1c2ccccc2nc2ccccc12)c1ccccc1O` the Potency was inconclusive: 39.8 µM [inhibitor, partial curve]. In the case of `CC(C)c1ccc(/C=C2\C(=N)N3N=C(CC(=O)N4CCCCC4)SC3=NC2=O)cc1`, the Potency is reported as “inactive”. In the case of `Cc1onc(-c2ccccc2Cl)c1C(=O)Nc1ccc(S(=O)(=O)NCC2CCCO2)cc1` (stereo unspecified), the Potency is reported as inconclusive: 89.1 µM [inhibitor, single point]. For `COC(=O)CCC(=O)OC1(C)C(=O)C=C2C=C(C3CC3)N(C3CC3)C=C2C1=O` (stereo unspecified), the Potency was “inactive”. With `Cc1cccc(Nc2nnc(SC/C(O)=C(\C#N)c3nc4ccccc4[nH]3)s2)c1C` the Potency was “inactive”. For `O=C(NCC(c1cccs1)N1CCOCC1)c1ccc(Br)o1` (stereo unspecified), the Potency was inconclusive: 35.5 µM [inhibitor, full curve]. In the case of `Cc1c(NC(=O)C(C)OC(=O)c2ccc([N+](=O)[O-])s2)c(=O)n(-c2ccccc2)n1C` (stereo unspecified), the Potency is reported as active: 10 µM. `COc1cc2c(cc1OC)C1Cc3ccc(OC)c(OC)c3C[N+]1([O-])CC2` (stereo unspecified) was tested, and the Potency was inconclusive: 89.1 µM [inhibitor, single point]. With `O=C1CCC/C(=N/NC(=O)c2sc3ccccc3c2Cl)C1` the activity change, negative = inhibition was inconclusive: -39% [inhibitor]. `Cc1cc(N2C(=O)C(O)=C(C(=O)c3ccco3)C2c2cccc(O)c2)no1` (stereo unspecified) was tested, and the Potency was “inactive”. With `CN1CCN(c2nc(-c3ccc(Br)cc3)nnc2-c2ccccc2)CC1` the Potency was inconclusive: 3.98 µM [inhibitor, full curve, poor fit]. With `Cc1cccc(NC(=O)CSC2=Nc3ccccc3C3=NC(CC(=O)NCc4cccs4)C(=O)N23)c1` (stereo unspecified) the Potency was “inactive”. With `COc1ccc(C(=O)NNC(=O)C2=NN(c3ccccc3)C(=O)CC2)cc1` the Potency was inconclusive: 39.8 µM [inhibitor, single point]. In the case of `CCCNC(=O)COC(=O)c1ccc(Cl)c(S(=O)(=O)N2CCCC2)c1`, the Potency is reported as inconclusive: 2.82 µM [inhibitor, partial curve, poor fit]. With `Cc1cccc(CNC(=O)c2cc3cc(S(=O)(=O)N4CCCCC4)ccc3n2C)c1` the Potency was “inactive”. With `CCOC(=O)C1CCN(C(=O)c2ccccc2CCc2ccccc2)CC1` the Potency was inconclusive: 39.8 µM [inhibitor, single point]. In the case of `O=C(Nc1ccc2c(c1)CCCN2C(=O)c1cccs1)c1ccc(F)c(F)c1`, the Potency is reported as inconclusive: 2.82 µM [inhibitor, full curve, poor fit]. `N#Cc1ccccc1CSc1nc2ncc(Br)cc2[nH]1` was tested, and the Potency was inconclusive: 10 µM [inhibitor, full curve, poor fit]. For `CN(C)CCCN1C(=O)c2cccc3cccc(c23)C1=O`, the Potency was inconclusive: 56.2 µM [inhibitor, partial curve]. For `CCOc1ccc(NC(=O)CN2C(=O)CSc3ccc(S(=O)(=O)N4CCCC4)cc32)cc1`, the Potency was inconclusive: 39.8 µM [inhibitor, single point]. With `CCN(c1ccccc1)S(=O)(=O)c1ccc(C(=O)Nc2nccs2)cc1` the Potency was inconclusive: 89.1 µM [inhibitor, single point]. `CC(C)(C)C1CCc2c(sc(NC(=O)c3cccc(Cl)c3)c2C(=O)NCc2ccco2)C1` (stereo unspecified) was tested, and the Potency was “inactive”. `N#Cc1ccccc1Cn1c(=O)n(Cc2ccc(C(=O)NCc3ccco3)cc2)c(=O)c2sccc21` was tested, and the Potency was inconclusive: 20 µM [inhibitor, full curve]. `Cc1ccc(-c2cc(C(=O)N3CCN(S(=O)(=O)c4ccc(Br)cc4)CC3)[nH]n2)c(C)c1` was tested, and the Potency was “inactive”. In the case of `CN(C(=O)CC(=O)Nc1ccc2nc3n(c(=O)c2c1)CCCCC3)c1ccccc1F`, the Potency is reported as “inactive”. With `O=C(O)c1cc(/C=N\O)ccc1OCc1ccccc1` the Potency was inconclusive: 79.4 µM [inhibitor, partial curve]. For `CCOC(=O)c1c(C)sc(-c2c(-c3ccccc3)[nH]c3[nH]c(=O)[nH]c(=O)c23)c1O`, the Potency was inconclusive: 56.2 µM [inhibitor, partial curve]. `COc1ccc(OC)c(Nc2nc3nonc3nc2N2CCCCC2)c1` was tested, and the Potency was “inactive”. With `NC(=O)Cn1c(O)c(N=NC(=O)CNC(=O)/C=C/c2ccccc2)c2ccccc21` the activity change, negative = inhibition was inconclusive: -49% [inhibitor]. In the case of `O=C(CSc1nc(O)cc(=O)n1-c1ccccc1)NCc1ccccc1`, the Potency is reported as “inactive”. For `Nn1c(SCc2csc(-c3ccccc3)n2)nnc1-c1cccs1`, the Potency was inconclusive: 56.2 µM [inhibitor, partial curve]. With `CC(=O)N1CCc2cc(Br)cc(S(=O)(=O)N3CCC(C(=O)Nc4cccc(C)c4C)CC3)c21` the Potency was active: 44.7 µM. `CCCCn1c(CNC(=O)C23CC4CC(CC(C4)C2)C3)nnc1SCC(=O)Nc1ccc(C)cc1` was tested, and the Potency was “inactive”. For `O=C(Nc1cccc(-c2nc3ccccc3[nH]2)c1)c1ccc(C(=O)Nc2cccc(-c3nc4ccccc4[nH]3)c2)cc1`, the Potency was inconclusive: 12.6 µM [inhibitor, partial curve, poor fit]. `O=C(Nc1c2c(nn1-c1ccccc1)CS(=O)(=O)C2)c1ccco1` was tested, and the Potency was inconclusive: 0.794 µM [inhibitor, full curve, poor fit]. For `Cc1cccc(NC(=O)Cn2c(=O)n(Cc3ccc4c(c3)OCO4)c(=O)c3oc4ccccc4c32)c1C`, the Potency was “inactive”. For `COC(=O)c1cccc(-c2ccc(C(c3c(C)[nH][nH]c3=O)c3c(C)[nH][nH]c3=O)o2)c1`, the Potency was inconclusive: 15.8 µM [inhibitor, single point]. For `Cn1cccc1/C=C1/SC(=S)N(CC(=O)O)C1=O`, the Potency was inconclusive: 89.1 µM [inhibitor, single point]. In the case of `CCn1c(/N=C/c2c[nH]c3ccccc23)nc2ccccc21`, the Potency is reported as inconclusive: 89.1 µM [inhibitor, single point].
